Results reported in patent EP0866075B1, “Method to treat microbial infections by uncoupling of phosphotransferase system and appropriate agents therefor” (priority 1997, dated 1998).
Results are given in words; binding and its absence hold for the method and conditions named. Some entries that bind do so weakly or less than the wild type.

Molecular target: enzyme I (phosphoenolpyruvate-protein phosphotransferase, EC 2.7.3.9) of the E. coli phosphotransferase system (E. coli) (UniProt P08839)
Assay: M13 phage display panning with enzyme I

For MRLLKTLCFGLCG [peptide 31 …], which binding is on record?
The binding was “binds”.
